Results published in publication PMC6220335, “Molecular structure of promoter-bound yeast TFIID” (Nature Communications, 2018).
Results are given in words; binding and its absence hold for the method and conditions named. Some binding calls cover weakened binding; strength is not graded here.

T1: Taf6, subunit of Komagataella phaffii TFIID (Komagataella phaffii) (UniProt F2QMA7)
T1 sequence: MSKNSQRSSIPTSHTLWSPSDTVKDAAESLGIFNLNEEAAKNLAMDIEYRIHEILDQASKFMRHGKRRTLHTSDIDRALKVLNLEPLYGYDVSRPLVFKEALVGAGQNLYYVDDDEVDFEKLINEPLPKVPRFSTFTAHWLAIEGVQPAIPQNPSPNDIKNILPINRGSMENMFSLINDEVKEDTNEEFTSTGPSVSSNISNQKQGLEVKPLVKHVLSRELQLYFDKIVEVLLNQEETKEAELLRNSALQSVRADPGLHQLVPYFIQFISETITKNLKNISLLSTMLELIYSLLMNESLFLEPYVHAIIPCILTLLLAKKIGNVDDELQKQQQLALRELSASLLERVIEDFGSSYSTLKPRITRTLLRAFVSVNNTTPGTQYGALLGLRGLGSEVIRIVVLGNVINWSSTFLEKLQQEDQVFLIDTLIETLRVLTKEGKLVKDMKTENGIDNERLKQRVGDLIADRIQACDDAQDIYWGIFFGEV

T2: Taf5, subunit of Komagataella phaffii TFIID (Komagataella phaffii) (UniProt F2QWD3)
T2 sequence: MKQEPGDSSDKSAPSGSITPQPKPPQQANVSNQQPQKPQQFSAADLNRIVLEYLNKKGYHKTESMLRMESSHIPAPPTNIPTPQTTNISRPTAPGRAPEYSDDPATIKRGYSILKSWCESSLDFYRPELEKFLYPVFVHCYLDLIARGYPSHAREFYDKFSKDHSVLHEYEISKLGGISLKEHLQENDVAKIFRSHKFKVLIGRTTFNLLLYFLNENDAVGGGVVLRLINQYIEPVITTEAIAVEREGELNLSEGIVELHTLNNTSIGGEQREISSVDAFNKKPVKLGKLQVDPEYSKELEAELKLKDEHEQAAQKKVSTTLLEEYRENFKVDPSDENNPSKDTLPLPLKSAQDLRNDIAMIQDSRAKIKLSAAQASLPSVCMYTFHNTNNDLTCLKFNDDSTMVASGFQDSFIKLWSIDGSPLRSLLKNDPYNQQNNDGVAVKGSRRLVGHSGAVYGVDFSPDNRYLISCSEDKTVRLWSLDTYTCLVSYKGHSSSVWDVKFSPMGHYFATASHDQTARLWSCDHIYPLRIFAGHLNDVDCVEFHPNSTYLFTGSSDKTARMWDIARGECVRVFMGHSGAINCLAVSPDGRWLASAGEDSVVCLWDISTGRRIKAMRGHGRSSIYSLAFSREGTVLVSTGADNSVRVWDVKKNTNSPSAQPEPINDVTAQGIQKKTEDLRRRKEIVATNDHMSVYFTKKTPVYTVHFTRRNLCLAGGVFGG

T3: Taf11, subunit of Komagataella phaffii TFIID (Komagataella phaffii) (UniProt F2QRB1)
T3 sequence: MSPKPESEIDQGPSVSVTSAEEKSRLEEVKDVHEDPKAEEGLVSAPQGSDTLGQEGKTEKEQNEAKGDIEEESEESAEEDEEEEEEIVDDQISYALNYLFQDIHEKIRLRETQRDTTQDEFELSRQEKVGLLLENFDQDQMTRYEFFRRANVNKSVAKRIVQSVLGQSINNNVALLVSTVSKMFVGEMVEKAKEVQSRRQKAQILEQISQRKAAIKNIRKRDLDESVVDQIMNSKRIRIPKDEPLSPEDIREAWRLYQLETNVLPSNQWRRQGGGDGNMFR

T4: Taf4, subunit of Komagataella phaffii TFIID (Komagataella phaffii) (UniProt F2QWX2)
T4 sequence: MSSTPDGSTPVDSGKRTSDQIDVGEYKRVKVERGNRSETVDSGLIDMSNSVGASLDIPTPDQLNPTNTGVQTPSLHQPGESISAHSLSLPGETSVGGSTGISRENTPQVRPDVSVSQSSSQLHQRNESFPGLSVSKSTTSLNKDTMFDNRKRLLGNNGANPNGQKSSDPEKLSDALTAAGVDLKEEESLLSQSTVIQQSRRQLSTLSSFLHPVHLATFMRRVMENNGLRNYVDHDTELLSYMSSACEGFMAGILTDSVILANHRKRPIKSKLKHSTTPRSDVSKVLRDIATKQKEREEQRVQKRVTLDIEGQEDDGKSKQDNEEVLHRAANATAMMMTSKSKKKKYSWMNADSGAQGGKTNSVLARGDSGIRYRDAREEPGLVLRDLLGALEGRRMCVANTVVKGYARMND

T5: Taf9, subunit of Komagataella phaffii TFIID (Komagataella phaffii) (UniProt F2QTW3)
T5 sequence: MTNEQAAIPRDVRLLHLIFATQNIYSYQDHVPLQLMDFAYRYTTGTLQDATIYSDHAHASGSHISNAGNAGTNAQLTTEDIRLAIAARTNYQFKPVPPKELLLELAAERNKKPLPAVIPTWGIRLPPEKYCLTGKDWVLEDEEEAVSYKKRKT

T6: Taf12, subunit of Komagataella phaffii TFIID (Komagataella phaffii) (UniProt F2QSK7)
T6 sequence: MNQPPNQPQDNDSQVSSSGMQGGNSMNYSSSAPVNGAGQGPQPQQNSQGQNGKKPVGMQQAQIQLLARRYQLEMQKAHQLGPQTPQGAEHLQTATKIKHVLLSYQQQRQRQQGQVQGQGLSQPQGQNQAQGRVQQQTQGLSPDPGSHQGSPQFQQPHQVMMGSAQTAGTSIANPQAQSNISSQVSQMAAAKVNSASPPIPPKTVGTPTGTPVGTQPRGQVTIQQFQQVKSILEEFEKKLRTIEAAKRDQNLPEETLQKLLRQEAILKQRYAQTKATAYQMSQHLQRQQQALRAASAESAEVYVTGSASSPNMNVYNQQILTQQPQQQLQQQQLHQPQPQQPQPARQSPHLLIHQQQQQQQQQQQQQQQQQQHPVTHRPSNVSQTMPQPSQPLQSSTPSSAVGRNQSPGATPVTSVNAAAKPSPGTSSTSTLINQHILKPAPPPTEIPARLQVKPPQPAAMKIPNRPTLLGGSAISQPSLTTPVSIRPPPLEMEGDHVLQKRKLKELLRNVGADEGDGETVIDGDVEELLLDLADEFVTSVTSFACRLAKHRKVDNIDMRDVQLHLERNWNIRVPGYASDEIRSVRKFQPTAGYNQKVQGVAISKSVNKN


Legend:
[1] = target: T1, Taf6, subunit of Komagataella phaffii TFIID (Komagataella phaffii); experiment: cross-linking; 50 µg purified TFIID, 3 mM BS3, 2 h at 25 °C; trypsin, SCX fractionation, Orbitrap Fusion MS; pLink and Nexus, 5% FDR; both purified
[2] = target: T1, Taf6, subunit of Komagataella phaffii TFIID (Komagataella phaffii); experiment: cryo-EM structure; purified TFIID (0.4 µM) with two-fold excess of TFIIA and 2.5–3-fold excess of pGAP promoter DNA, cross-linked with 0.1% glutaraldehyde; focused refinement of the lobes (Taf2 lobe 4.5 Å, Twin lobe 4.8 Å); homology models docked; both purified
[3] = target: T2, Taf5, subunit of Komagataella phaffii TFIID (Komagataella phaffii); experiment: cross-linking; 50 µg purified TFIID, 3 mM BS3, 2 h at 25 °C; trypsin, SCX fractionation, Orbitrap Fusion MS; pLink and Nexus, 5% FDR; both purified
[4] = target: T2, Taf5, subunit of Komagataella phaffii TFIID (Komagataella phaffii); experiment: cryo-EM structure; purified TFIID (0.4 µM) with two-fold excess of TFIIA and 2.5–3-fold excess of pGAP promoter DNA, cross-linked with 0.1% glutaraldehyde; focused refinement of the lobes (Taf2 lobe 4.5 Å, Twin lobe 4.8 Å); homology models docked; both purified
[5] = target: T3, Taf11, subunit of Komagataella phaffii TFIID (Komagataella phaffii); experiment: cross-linking; 50 µg purified TFIID, 3 mM BS3, 2 h at 25 °C; trypsin, SCX fractionation, Orbitrap Fusion MS; pLink and Nexus, 5% FDR; both purified
[6] = target: T4, Taf4, subunit of Komagataella phaffii TFIID (Komagataella phaffii); experiment: as above
[7] = target: T5, Taf9, subunit of Komagataella phaffii TFIID (Komagataella phaffii); experiment: as above
[8] = target: T6, Taf12, subunit of Komagataella phaffii TFIID (Komagataella phaffii); experiment: as above

| Binder | binding [1] | binding [2] | binding [3] | also measured |
| --- | --- | --- | --- | --- |
| Taf11, subunit of Komagataella phaffii TFIID (natural protein, UniProt F2QRB1 1-281, looked up, Taf11, TFIID subunit of the yeast Komagataella phaffii (formerly Pichia pastoris); histone-fold domain modelled in the cryo-EM map; source: endogenous, K. phaffii nuclear extract; co-purified in TFIID by SBP-tagged Taf2 (streptavidin beads, sucrose gradient)) MSPKPESEIDQGPSVSVTSAEEKSRLEEVKDVHEDPKAEEGLVSAPQGSDTLGQEGKTEKEQNEAKGDIEEESEESAEEDEEEEEEIVDDQISYALNYLFQDIHEKIRLRETQRDTTQDEFELSRQEKVGLLLENFDQDQMTRYEFFRRANVNKSVAKRIVQSVLGQSINNNVALLVSTVSKMFVGEMVEKAKEVQSRRQKAQILEQISQRKAAIKNIRKRDLDESVVDQIMNSKRIRIPKDEPLSPEDIREAWRLYQLETNVLPSNQWRRQGGGDGNMFR | binds | – | – | – |
| Taf6, subunit of Komagataella phaffii TFIID (natural protein, UniProt F2QMA7 1-485, looked up, Taf6, TFIID subunit of the yeast Komagataella phaffii (formerly Pichia pastoris); HEAT repeats (residues 213–486) and histone-fold domain modelled in the cryo-EM map; two copies in holo-TFIID; source: endogenous, K. phaffii nuclear extract; co-purified in TFIID by SBP-tagged Taf2 (streptavidin beads, sucrose gradient)) MSKNSQRSSIPTSHTLWSPSDTVKDAAESLGIFNLNEEAAKNLAMDIEYRIHEILDQASKFMRHGKRRTLHTSDIDRALKVLNLEPLYGYDVSRPLVFKEALVGAGQNLYYVDDDEVDFEKLINEPLPKVPRFSTFTAHWLAIEGVQPAIPQNPSPNDIKNILPINRGSMENMFSLINDEVKEDTNEEFTSTGPSVSSNISNQKQGLEVKPLVKHVLSRELQLYFDKIVEVLLNQEETKEAELLRNSALQSVRADPGLHQLVPYFIQFISETITKNLKNISLLSTMLELIYSLLMNESLFLEPYVHAIIPCILTLLLAKKIGNVDDELQKQQQLALRELSASLLERVIEDFGSSYSTLKPRITRTLLRAFVSVNNTTPGTQYGALLGLRGLGSEVIRIVVLGNVINWSSTFLEKLQQEDQVFLIDTLIETLRVLTKEGKLVKDMKTENGIDNERLKQRVGDLIADRIQACDDAQDIYWGIFFGEV | – | – | binds | binding [4]: binds |
| Taf13, subunit of Komagataella phaffii TFIID (protein, UniProt A0A1G4KP49 1-139) MSRKPERRRQPRLFSNDMRTLLFAYGDVQQPQLETIQALEDVMIVFMTDLCHEAMTYATYQGRKHKLKMEDFKFALRKDRLKLGRVEELMNKQKEIQEARKLFDSNEKETKDDDIEKKRRKEAKRAIKEAKKLKLSKGD | binds | – | binds | binding [5]: binds; binding [6]: binds; binding [7]: binds; binding [8]: binds |

Now from value to binder, other results behind:

| binding [1] | binding [2] | binding [3] | Binder | also measured |
| --- | --- | --- | --- | --- |
| binds | binds | – | Taf8, subunit of Komagataella phaffii TFIID (natural protein, UniProt F2QT15 1-517, looked up, Taf8, TFIID subunit of the yeast Komagataella phaffii (formerly Pichia pastoris); putative helices placed in the cryo-EM map; also called KpTaf8; source: endogenous, K. phaffii nuclear extract; co-purified in TFIID by SBP-tagged Taf2 (streptavidin beads, sucrose gradient)) MADKSDDNQSLVSVSSASSGKENPNSVGQRSMNPTLSHEEQHDQEVQERYNTGKDLNITSQPECVPAMEVALKASVLLILSSLGVQASSLSIDHLTYITTKYIDRLVSELHRSTEIQRRRTIAKRDVQLVVDRGILDLEDVTLEYERLKLTRKRVKPSIEKLSKYASELKESASSVQVSENDKDAFFFFDIAEKISEFMPLRMKRKNYIPKWMPVLPPEHTYVATPQFTEVISDPKELREQLTAESRLGEKALQHLIGTKIVEDKKEDVGNENDNDIDKEIHHGEIDVESDHNLEKGPNGETNGVQSQPPKSMVSSKRFDIVAHAKHRLSVLEKRKRHQEQLLENRRKEIDGLVGQYLGYYATKKIEPPVSDIIVNIMNTEYYHVSREISKSEHRKQKIQESQQLKRRKLEDELQQELEHQTEDIDFEFNFDEDDVDMNKNLNENLNENENDDEQVLIEEDTSFDITNGDIEKTNQETPFTNGSSKQWDSNNAILDSTNSEPEPEPPIADLFNVDSS | – |
| binds | binds | – | Taf9, subunit of Komagataella phaffii TFIID (natural protein, UniProt F2QTW3 1-153, looked up, Taf9, TFIID subunit of the yeast Komagataella phaffii (formerly Pichia pastoris); histone-fold domain modelled in the cryo-EM map; source: endogenous, K. phaffii nuclear extract; co-purified in TFIID by SBP-tagged Taf2 (streptavidin beads, sucrose gradient)) MTNEQAAIPRDVRLLHLIFATQNIYSYQDHVPLQLMDFAYRYTTGTLQDATIYSDHAHASGSHISNAGNAGTNAQLTTEDIRLAIAARTNYQFKPVPPKELLLELAAERNKKPLPAVIPTWGIRLPPEKYCLTGKDWVLEDEEEAVSYKKRKT | – |
